Results deposited as PubChem BioAssay AID1224830 (NIAID, 2016).
Test: 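Host factors that control LPS-induced TNF expression in human macrophages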 (primary screen). Cell system: human THP-1 monocytic leukaemia cells, TNF dual-luciferase reporter clone, PMA-differentiated to macrophage-like cells. Reagents: siRNA pool against human genes, 50 nM. Time to read-out: LPS for 4 h, given about 3 days after siRNA transfection. Challenge: bacterial LPS (TLR4 ligand), 10 ng/ml. Read-out: 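Ratio of firefly to renilla light, scaled to the plate median and expressed as a robust z-score per replicate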. Scale: TNF reporter robust z-score: higher = stronger TNF reporter response to LPS. Active means: 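a well is active when its z-score exceeds 2.8 or falls below -1.5; control wells carry no call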.
In all, the deposit lists about 18,000 reagents; this is a random part of them. Of all reagents, about 2,900 (16%) were called active. 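Calls are made per well; low scores hint the gene aids the LPS response, high scores that it dampens it.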 Repeated entries: four replicate wells of each siRNA pool. Reagent sequences are not shown.

| gene knocked down | TNF reporter robust z-score | call |
| --- | --- | --- |
| NXPE4 | 0.68 | inactive |
| NXPE4 | 1.69 | inactive |
| NXPE4 | -0.63 | inactive |
| NXPE4 | 0.77 | inactive |
| S100B | 0.75 | inactive |
| S100B | -0.04 | inactive |
| S100B | 0.15 | inactive |
| S100B | 0.29 | inactive |
| NEURL3 | 0.57 | inactive |
| NEURL3 | 0.71 | inactive |
| NEURL3 | 0.42 | inactive |
| NEURL3 | -1.17 | inactive |
| MIP | 0.12 | inactive |
| MIP | 0.55 | inactive |
| MIP | 0.04 | inactive |
| MIP | 0.41 | inactive |
| SPATA31G1 | -0.77 | inactive |
| SPATA31G1 | -0.46 | inactive |
| SPATA31G1 | -0.32 | inactive |
| SPATA31G1 | -0.58 | inactive |
| ODAM | -1.49 | inactive |
| ODAM | -0.55 | inactive |
| ODAM | 1.82 | inactive |
| ODAM | -0.76 | inactive |
| TP73 | -0.59 | inactive |
| TP73 | 0.84 | inactive |
| TP73 | 0.5 | inactive |
| TP73 | 0.87 | inactive |
| ARHGAP6 | -0.14 | inactive |
| ARHGAP6 | 1.78 | inactive |
| ARHGAP6 | 0.27 | inactive |
| ARHGAP6 | 2.25 | inactive |
| KIF1C | 0.81 | inactive |
| KIF1C | -0.28 | inactive |
| KIF1C | 0.61 | inactive |
| KIF1C | 1.39 | inactive |
| CLDN2 | -0.79 | inactive |
| CLDN2 | -0.68 | inactive |
| CLDN2 | -0.55 | inactive |
| CLDN2 | -0.77 | inactive |
| DGKQ | -1.41 | inactive |
| DGKQ | -1.21 | inactive |
| DGKQ | 0.75 | inactive |
| DGKQ | 0.68 | inactive |
| CDK7 | -0.03 | inactive |
| CDK7 | 1.04 | inactive |
| CDK7 | 0.92 | inactive |
| CDK7 | 0.76 | inactive |
| FFAR4 | -1.53 | active |
| FFAR4 | -0.81 | inactive |
| FFAR4 | -1.49 | inactive |
| FFAR4 | -1.61 | active |
| ZFP1 | – | inactive |
| ZFP1 | -1.31 | inactive |
| ZFP1 | -1.18 | inactive |
| ZFP1 | -1.34 | inactive |
| ZFP1 | -1.4 | inactive |
| BKGD | -0.49 | inactive |
| BKGD | -0.47 | inactive |
| BKGD | -0.99 | inactive |
| BKGD | -0.38 | inactive |

Next part (15 carried over from the part before).
| gene knocked down | TNF reporter robust z-score | call |
| --- | --- | --- |
| CDK7 | 0.92 | inactive |
| CDK7 | 0.76 | inactive |
| FFAR4 | -1.53 | active |
| FFAR4 | -0.81 | inactive |
| FFAR4 | -1.49 | inactive |
| FFAR4 | -1.61 | active |
| ZFP1 | – | inactive |
| ZFP1 | -1.31 | inactive |
| ZFP1 | -1.18 | inactive |
| ZFP1 | -1.34 | inactive |
| ZFP1 | -1.4 | inactive |
| BKGD | -0.49 | inactive |
| BKGD | -0.47 | inactive |
| BKGD | -0.99 | inactive |
| BKGD | -0.38 | inactive |
| ALX3 | -0.03 | inactive |
| ALX3 | -0.65 | inactive |
| ALX3 | 0.08 | inactive |
| ALX3 | 0.04 | inactive |
| THAP5 | 0.41 | inactive |
| THAP5 | -0.19 | inactive |
| THAP5 | -0.57 | inactive |
| OR7E24 | 1.4 | inactive |
| OR7E24 | 1.39 | inactive |
| OR7E24 | 2.35 | inactive |
| OR7E24 | 2.19 | inactive |
| IL9 | -0.44 | inactive |
| IL9 | -0.59 | inactive |
| IL9 | -0.81 | inactive |
| IL9 | -0.39 | inactive |
| MKNK2 | -0.66 | inactive |
| MKNK2 | 0.37 | inactive |
| MKNK2 | 0.21 | inactive |
| MKNK2 | 0.3 | inactive |
| CAPN10 | -0.08 | inactive |
| CAPN10 | 1.02 | inactive |
| CAPN10 | 0.75 | inactive |
| CAPN10 | -0.48 | inactive |
| ZNF671 | -0.65 | inactive |
| ZNF671 | 0.56 | inactive |
| ZNF671 | 0.37 | inactive |
| ZNF671 | -0.35 | inactive |
| CAPN7 | -0.1 | inactive |
| CAPN7 | 0.11 | inactive |
| CAPN7 | 0.18 | inactive |
| CAPN7 | 0.02 | inactive |
| ERMP1 | 0.3 | inactive |
| ERMP1 | 1.84 | inactive |
| ERMP1 | 0.37 | inactive |
| ERMP1 | 1.05 | inactive |
| LRRC18 | 1.45 | inactive |
| LRRC18 | 3.33 | active |
| LRRC18 | 3.65 | active |
| LRRC18 | -0.23 | inactive |
| QSOX1 | -1.37 | inactive |
| QSOX1 | -0.33 | inactive |
| QSOX1 | -0.98 | inactive |
| QSOX1 | -0.51 | inactive |
| ERBB4 | 0.41 | inactive |
| ERBB4 | -1.21 | inactive |
| ERBB4 | 0.38 | inactive |
| ERBB4 | -0.81 | inactive |
| XYLT2 | 0.2 | inactive |
| XYLT2 | 0.54 | inactive |
| XYLT2 | 0.09 | inactive |
| XYLT2 | 0.51 | inactive |
